This test addresses C. albicans Rsc1 mutated in BD2 (K238E/K241E/K242E), Flag-tagged (C. albicans). Nature of the test: affinity purification with mass spectrometry.

These are yes or no findings as the source states them, for the method shown. In cells and extracts the contact can be indirect. Here binding means that the protein was enriched with, or labelled near, the bait; the list need not be complete.

B1: Nri2 (Candida-specific RSC subunit) (protein, UniProt Q59T87 1-239)
chain: MVKNTSYKKQKLSSRNRIINQEVPLFPPTKYEKSKATLKHFPSSIVNGVTAEGGLYSLTFKSINCASFVENNELMKTVFKVPKLELSKVTDNDDVDKLKNWKQTLENDINELKKSDSNVANTNIVSDLQNELQTDLENNGNNLATFGEKLADSFVVNINISDGNYKVIQDVIIPGLQVDTFEDVTNPDLSEYEKITLSDTQNEEKEETGNKQETEVGQEVESEQKDENKTEQTSQPTST
Consider B1, for which the binding result is “binds”.

B2: Nri1 (Candida-specific RSC subunit) (protein, UniProt Q5ALY5 1-618)
chain: MDVRRCRRCKRKRLDDEPDEVRQYKTCAKCRIIERNKKNSRKPLAEETMLYGLKQFREQQSAENYIEEEGLLKDEFFKRYHNKPFNYQEEITKVLNNPNYVPPVLHNHNTDEVVTSSNGNTTGPKYQMTMKTNNTTGVQPPIKSRKQQQQPQPQQQQQQTQQHRHQQHQHQQQTHHHNQLHHQQETVIVDDEEDLYKILSELGNDDNSAKNDSKIIKENLDPYANDNVYDDFQKYLTTILEKLHSDKDIKNLVYLKEFNEVFTTNMSKFDAYTKDRTTLYQSIRLSEKQFRSHLLSNIRAMYIDPIIACLGLLYKQEYTNINEFKSTTSIKCGFSYIAKSAEQDEIKNLKESSIILVYNKKYHLLVIKLNHTSYRPSEIIYPNEFKQKVASVFGLLQMEEYSPESTAIFQNINLDYNAITGGLVYDKLVSVSHTYSEELQKFLKGLDKDVFIADFVNYEKVFKLDEENGVNDDDDDMDVDEEKPENKEEEQPQQQEQEGDVDVKMDVEEDGDHELENDVSQANKNDNESESVGQTEEEEEEEEEEEIQVEEAHVPSDELELALGESLAIENDNESENEINQTTTTFVSNENKEDDNNNDDILTKKESTVEVLDPVFQF
In the case of B2, the binding entry is on record as “binds”.

Values taken from article doi:10.1101/2025.03.24.644971.
